Binding data for 3 substances are collected here from article PMC8832971.

Chains of the proteins cited; added tags and fusions are not shown. Lines headed by an entry give the natural chain unless they say otherwise; changes in a name come on top.
UniProt A0ABR4RQ49: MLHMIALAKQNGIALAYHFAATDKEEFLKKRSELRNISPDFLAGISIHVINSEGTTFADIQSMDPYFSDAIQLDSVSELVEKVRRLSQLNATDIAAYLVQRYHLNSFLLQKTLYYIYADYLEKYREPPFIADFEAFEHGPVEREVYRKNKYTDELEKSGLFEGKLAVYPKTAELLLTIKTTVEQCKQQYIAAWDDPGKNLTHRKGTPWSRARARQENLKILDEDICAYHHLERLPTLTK
UniProt A0A097IIB1: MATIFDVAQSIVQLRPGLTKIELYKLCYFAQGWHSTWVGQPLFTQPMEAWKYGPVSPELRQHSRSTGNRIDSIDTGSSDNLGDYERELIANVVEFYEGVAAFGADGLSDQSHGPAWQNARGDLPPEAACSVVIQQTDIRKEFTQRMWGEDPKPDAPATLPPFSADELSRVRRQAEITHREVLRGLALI
UniProt A0ABM5XX51: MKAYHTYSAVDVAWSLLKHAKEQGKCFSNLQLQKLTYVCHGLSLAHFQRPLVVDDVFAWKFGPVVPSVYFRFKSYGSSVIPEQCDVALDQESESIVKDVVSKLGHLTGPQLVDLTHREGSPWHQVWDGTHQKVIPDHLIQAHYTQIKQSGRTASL

These are yes or no findings as the source states them, for the method shown. In cells and extracts the contact can be indirect. A result given as binding can be weak or reduced; the word gives no strength.

Holding throughout (assay): pull-down; untagged PanA coexpressed with N-terminally His6- or His10-SUMO-tagged cognate PanT in E. coli BL21 DE3; filtered lysate incubated 30 min with Ni-beads in 25 mM Hepes pH 7.5, 300 mM NaCl, 10 mM imidazole, 2 mM CaCl2, 2 mM β-ME; eluted with 300 mM imidazole; 15% SDS-PAGE, stained
Assay [1] addresses Lactobacillus animalis PhRel2 toxSAS toxin (Lactobacillus animalis).
In assay [2] the target is Corynebacterium doosanense Fic/Doc toxin (Corynebacterium doosanense).
Assay [3] addresses Vibrio harveyi CapRel toxSAS toxin (Vibrio harveyi).

As for “Lactobacillus animalis PanA antitoxin (from UniProt A0ABR4RQ49)”, the binding entry in assay [1] is reported as “binds”.
As for “Corynebacterium doosanense PanA antitoxin (from UniProt A0A097IIB1)”, in assay [2], the binding result was “binds”.
Take “Vibrio harveyi PanA antitoxin (from UniProt A0ABM5XX51)”: in assay [3], the binding entry was “binds”.
